Screen size: about 330,000 compounds; about 7,700 (2.3%) were called active. Inconclusive results, whose numbers are uncertain, are shown with a selection of clear calls. Calls follow the shape of the dose curve; as a rule, active = well fitted inhibition curve with a large enough effect; inconclusive = small, poorly fitted or top-dose-only effect, or effect the other way; inactive = flat fitted curve, though single readings scatter. Potencies of inconclusive entries are doubtful fits and often do not repeat.
experiment: qHTS screen for small molecules that inhibit ELG1-dependent DNA repair in human embryonic kidney (HEK293T) cells expressing luciferase-tagged ELG1; conditions: HEK293T ELG1-luciferase reporter, luminescence, 16 h, DNA damage induced by 5-fluorouridine; series mostly up to 46.1 µM; also: nearly all actives have a fitted effect of over 55% in size
Procedure, shortened: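 Quantitative HTS, concentration-response format. 2,000 cells/well co-treated with 5-fluorouridine and compound, 16 hr in 5% CO2 at 37 °C; ONE-Glo luminescence read after 30 min.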
Potency is read from the fitted curve at half-maximal effect.

Compound | Potency
Cc1ccc(NC(=S)N2CCC(NC(=O)c3ccc(F)cc3)CC2)cc1C | inactive
Cn1c(=O)c([N+](=O)[O-])c(NCc2ccccc2Cl)c2ccccc21 | inconclusive: 29.1 µM [inhibitor, single point]
CN(C(=O)c1cccc(C#N)c1)c1nnc(-c2ccccn2)s1 | inconclusive: 25.9 µM [activator, single point]
CC(=O)N1N=C(c2c(-c3ccccc3)c3cc(Br)ccc3[nH]c2=O)CC1c1ccco1 (stereo not given) | inconclusive: 23.1 µM [inhibitor, partial curve, poor fit]
C/C(=N/OCC(=O)Nc1ccc(C)cc1C)c1cccs1 | inactive
CCCCCC(=O)Nc1cccc(C2=NOC3(C2)C[C@H](C(N)=O)N(C(=O)CC#N)C3)c1 (stereo not given in full) | inconclusive: 16.4 µM [activator, partial curve, poor fit]
COC(=O)CSc1nc(C)c(C(C)=O)cc1C#N | inconclusive: 25.9 µM [activator, single point]
O=C(NNC(=O)c1nc2ccccc2[nH]1)OCc1ccccc1 | inactive
COc1ccccc1OCc1csc(NC(=O)c2ccco2)n1 | inconclusive: 2.06 µM [activator, full curve, poor fit]
CC(C)c1ccc2c(c1)C1Cc3ccccc3C1N2 (stereo not given) | inconclusive: 9.2 µM [activator, partial curve]
Cc1cc(=O)n2nc(-c3ccc(C(F)(F)F)cc3)sc2n1 | inconclusive: 9.2 µM [activator, partial curve]
CN(Cc1cccs1)C(=O)Cc1c[nH]c2ccccc12 | inconclusive: 20.6 µM [activator, single point]
Cc1nc2c(cnn2-c2ccccc2Cl)c(=O)n1-c1ccc(C(C)C)cc1 | inconclusive: 14.6 µM [inhibitor, partial curve]
CCOC(=O)c1ccc(NC(=O)CSc2nccn2C)cc1 | inconclusive: 18.4 µM [activator, single point]
CCOC(=O)C1CCN(c2ncnc3c2c(-c2ccccc2)cn3-c2ccc(C)cc2)CC1 | active: 14.6 µM
O=C(Nc1ccc(Cl)c(Cl)c1)c1ccc2c(c1)OCO2 | inconclusive: 0.92 µM [activator, partial curve]
COc1ccccc1NC(=O)CSc1nnc2ccc(-c3ccccn3)nn12 | inconclusive: 7.3 µM [inhibitor, single point]
Cc1ccc(NC(=O)COC(=O)Cc2csc(-c3ccc(Cl)cc3)n2)cc1C | inconclusive: 20.6 µM [activator, single point]
Cc1ccc(S(=O)(=O)N2CCCN(S(=O)(=O)c3ccccc3Br)CC2)cc1 | inconclusive: 29.1 µM [inhibitor, single point]
CCOC(=O)CSc1nnc(NC(=O)c2cccc([N+](=O)[O-])c2)s1 | inactive
O=C(/C=C/c1ccccc1Cl)OCC(=O)N1CCCC1 | inconclusive: 29.1 µM [activator, single point]
Cc1cc(/C=C2/C(=N)N3C(=NC2=O)SN=C3S(C)(=O)=O)c(C)n1-c1ccc(F)cc1 | inconclusive: 14.6 µM [activator, partial curve]
CC(C)Cn1cc(C(=O)NCCCOC(C)C)c2c3ccccc3n(C)c2c1=O | inconclusive: 20.6 µM [inhibitor, single point]

Compound | Potency
COc1ccc(CCC(=O)NC2CCCCC2)cc1 | inactive
COC(=O)CNC(c1ccccc1)c1cc(Br)ccc1NC(C)=O (stereo not given) | inactive
CCn1c(SCC(=O)Nc2cc(C)on2)nc2c(c1=O)SC(C)C2 (stereo not given) | inactive
CCOc1ccc(Br)cc1S(=O)(=O)Nc1cccc(S(=O)(=O)Nc2ccccc2C(=O)O)c1 | inactive
CC(=NNC(=O)Cn1ccc(C(F)(F)F)n1)c1ccc(-n2ccnc2)cc1 | inactive
CCc1ccc(N=c2c([N+](=O)[O-])nn(-c3ccc4c(c3)OCCO4)n2O)cc1 | inconclusive: 16.4 µM [activator, partial curve]
O=[N+]([O-])c1cc(-c2cnc3ccccc3n2)ccc1Cl | inactive
Cc1cc(C)c(C(=O)CSc2nc(C)cc(C)c2C(N)=O)c(C)c1 | inconclusive: 23.1 µM [activator, partial curve, poor fit]
Cc1ccc(S(=O)(=O)Nc2ccc(NC(=O)Nc3ccc(F)cc3F)cc2)cc1 | inconclusive: 29.1 µM [inhibitor, single point]
COC(=O)c1ccc(-c2ccc(/C=N/NC(=O)CC3(C)OCCCO3)o2)cc1 | inconclusive: 5.8 µM [activator, single point]
CC(=O)c1cccc(NC(=O)CCc2nc3sc4c(c3c(=O)[nH]2)CCCC4)c1 | inconclusive: 23.1 µM [inhibitor, single point]
CCOC(=O)C1CCN(c2nc3ccccc3nc2C(C#N)C(=O)OCCOC)CC1 (stereo not given) | inconclusive: 4.61 µM [inhibitor, single point]
COc1cc(C(=O)NCCC(=O)NC(C)C)cc(OC)c1OC | inactive
CC(C)(C)c1ccc(C(=O)Nc2ccccc2C(=O)NCCN2CCOCC2)cc1 | inconclusive: 13 µM [activator, partial curve]
Cc1noc(C)c1COC(=O)c1cccc(S(=O)(=O)N2CCCCCC2)c1 | active: 5.8 µM
Cc1cc(N2CCCC2=O)ccc1S(=O)(=O)NC1CCCCC1 | inconclusive: 23.1 µM [inhibitor, partial curve, poor fit]
O=C(Cc1ccc(S(=O)(=O)N2CCOCC2)s1)Nc1ccccc1N1CCCC1 | inconclusive: 0.13 µM [inhibitor, full curve]
COc1ccc(S(=O)(=O)N2CCOCC2)cc1NC(=O)C1CC1 | inactive
CCC(=O)Nc1cccc2c1C(=O)N(C)C2=O | inactive
CCCCC(=O)c1c(O)c2ccccc2oc1=O | inconclusive: 18.4 µM [inhibitor, single point]
CCN(CC)S(=O)(=O)c1cccc(NC(=O)CCNC(=O)NC23CC4CC(CC(C4)C2)C3)c1 | inactive
O=C(CSc1nnc(-c2ccccc2Cl)o1)Nc1ccccn1 | inconclusive: 0.517 µM [activator, full curve]

Laid out differently: entries from further up

| Compound | Potency |
| --- | --- |
| COC(=O)c1ccc(-c2ccc(/C=N/NC(=O)CC3(C)OCCCO3)o2)cc1 | inconclusive: 5.8 µM [activator, single point] |
| CC(=O)c1cccc(NC(=O)CCc2nc3sc4c(c3c(=O)[nH]2)CCCC4)c1 | inconclusive: 23.1 µM [inhibitor, single point] |
